Experimental data reported in the supplement of paper PMC4604168 (melanoma cell lines).
This is one part of the list. Many values rest on one well or one pass, so single values are uncertain.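 The apoptosis fraction was the count of cleaved-PARP antibody-stained nuclei relative to all DNA-stained nuclei, imaged in 1,536-well plates. Screening doses were set so most cells survived, and baseline and induced cleaved-PARP levels vary greatly across cell lines.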

Tests used:
Assay in all cases: cleaved PARP positive nuclei fraction relative to DMSO control; melanoma cells; higher = more apoptosis
Settings in all cases: library dose: low library concentration; 72 h
[1] = test system: 501Mel
[2] = test system: A101D
[3] = test system: A2058
[4] = test system: C32
[5] = test system: CBRC008 (line from a melanoma biopsy)
[6] = test system: CBRC014 (line from a melanoma biopsy)
[7] = test system: CBRC016 (line from a melanoma biopsy)
[8] = test system: CBRC017 (line from a melanoma biopsy)
[9] = test system: COLO792
[10] = test system: COLO800
[11] = test system: COLO829
[12] = test system: G361
[13] = test system: IPC-298
[14] = test system: IST-MEL1
[15] = test system: LB2518-MEL
[16] = test system: LOXIMVI

SMILES	cleaved PARP positive nuclei fraction [1]	cleaved PARP positive nuclei fraction [2]	cleaved PARP positive nuclei fraction [3]	cleaved PARP positive nuclei fraction [4]	cleaved PARP positive nuclei fraction [5]	cleaved PARP positive nuclei fraction [6]	cleaved PARP positive nuclei fraction [7]	cleaved PARP positive nuclei fraction [8]	cleaved PARP positive nuclei fraction [9]	cleaved PARP positive nuclei fraction [10]	cleaved PARP positive nuclei fraction [11]	cleaved PARP positive nuclei fraction [12]	cleaved PARP positive nuclei fraction [13]	cleaved PARP positive nuclei fraction [14]	cleaved PARP positive nuclei fraction [15]	cleaved PARP positive nuclei fraction [16]
Nc1ccn([C@@H]2O[C@H](CO)[C@@H](O)C2(F)F)c(=O)n1 [gemcitabine] + c1cc(-c2cnn3cc(-c4ccc(OCCN5CCCCC5)cc4)cnc23)ccn1 [Dorsomorphin] (first compound 0.0004 µM, partner dose 0.4 µM)	68.1%	27.6%	119%	58.7%	51.2%	139%	58.4%	141%	165%	149%	91.9%	98.1%	132%	83.4%	41.9%	108%
CCCS(=O)(=O)Nc1ccc(F)c(C(=O)c2c[nH]c3ncc(Cl)cc23)c1F + CC(C)CCN1c2nc(Nc3cc(F)c(O)c(F)c3)ncc2N(C)C(=O)C1C [BID1870] (first compound 0.08 µM, partner dose 0.2 µM)	65.8%	73.4%	70.6%	120%	41.8%	237%	63.4%	101%	67%	23.2%	130%	196%	102%	122%	41.1%	29.9%
O=C(O)[C@@H]1[O][Sb](=[O])([O][Sb]2(=[O])[O][C@H]([C@H](O)CO)[C@H](O)[C@H](C(=O)O)[O]2)[O][C@H]([C@H](O)CO)[C@@H]1O (stereo partly drawn) [stibogluconate] + COc1cc(N2CCC(N3CCN(C)CC3)CC2)ccc1Nc1ncc(Cl)c(Nc2ccccc2S(=O)(=O)C(C)C)n1 [NVP-TAE684] (first compound 2 µM, partner dose 0.08 µM)	33.8%	53.4%	84.9%	194%	97.4%	100%	66.4%	96.4%	97.3%	125%	56.3%	137%	155%	104%	39.1%	175%
Nc1ccn([C@@H]2O[C@H](CO)[C@@H](O)C2(F)F)c(=O)n1 [gemcitabine] + N#Cc1c(O)c2c(-c3ccc(-c4ccccc4O)cc3)csc2[nH]c1=O [A769662] (first compound 0.0004 µM, partner dose 2 µM)	63.4%	5.64%	166%	49%	233%	258%	170%	293%	88.1%	39.8%	65.3%	127%	134%	101%	71%	58.7%
Nc1ncn([C@H]2C[C@H](O)[C@@H](CO)O2)c(=O)n1 [decitabine] + COc1cc2ncnc(Nc3ccc(Oc4ccccc4)cc3)c2cc1OC [SrcI1] (first compound 0.1 µM, partner dose 2 µM)	73.6%	38%	125%	75.5%	188%	93.6%	29.1%	94.9%	49.5%	79.6%	85.2%	163%	143%	105%	77.9%	186%
CN1CCN(c2ccc3nc(-c4c(N)c5c(F)cccc5[nH]c4=O)[nH]c3c2)CC1 [Dovitinib] + COc1cc2ncnc(Nc3ccc(Oc4ccccc4)cc3)c2cc1OC [SrcI1] (first compound 0.1 µM, partner dose 2 µM)	131%	45.5%	45.4%	41.4%	147%	95.2%	20.7%	103%	59.7%	288%	48.9%	122%	98.8%	107%	75.2%	157%
Nc1ncn([C@H]2C[C@H](O)[C@@H](CO)O2)c(=O)n1 [decitabine] + O=c1cc(-c2cccc3c2Sc2ccccc2S3)oc(N2CCOCC2)c1 [KU55933] (first compound 0.1 µM, partner dose 1 µM)	140%	36.4%	88.5%	88.3%	93.4%	98.5%	37.1%	76.7%	159%	55.2%	75.7%	78.9%	265%	636%	83%	206%
Cn1c(=O)n(-c2ccc(C(C)(C)C#N)cc2)c2c3cc(-c4cnc5ccccc5c4)ccc3ncc21 + O=S(=O)(c1ccccc1)N(CC(F)(F)F)c1ccc(C(O)(C(F)(F)F)C(F)(F)F)cc1 [T0901317] (first compound 0.004 µM, partner dose 1.4 µM)	207%	18.5%	61.3%	262%	152%	351%	79.4%	93.1%	92.8%	44.6%	98%	67.9%	73.6%	25.7%	35.8%	149%
Nc1ncn([C@H]2C[C@H](O)[C@@H](CO)O2)c(=O)n1 [decitabine] + Cc1cc([N+](=O)[O-])ccc1NS(=O)(=O)c1cc(Cl)ccc1Cl [FH535] (first compound 0.1 µM, partner dose 1 µM)	84.5%	16.5%	59.2%	40.4%	970%	216%	789%	923%	86.4%	51.1%	104%	180%	80.7%	92.4%	189%	159%
O=C(O)[C@@H]1[O][Sb](=[O])([O][Sb]2(=[O])[O][C@H]([C@H](O)CO)[C@H](O)[C@H](C(=O)O)[O]2)[O][C@H]([C@H](O)CO)[C@@H]1O (stereo partly drawn) [stibogluconate] + c1cc(-c2cnn3cc(-c4ccc(OCCN5CCCCC5)cc4)cnc23)ccn1 [Dorsomorphin] (first compound 2 µM, partner dose 0.4 µM)	138%	5.53%	111%	221%	78.5%	104%	30.3%	308%	67.4%	106%	82.8%	59.2%	94.2%	16.7%	62.9%	70.7%
Nc1ccn([C@@H]2O[C@H](CO)[C@@H](O)C2(F)F)c(=O)n1 [gemcitabine] + CC(C)CCN1c2nc(Nc3cc(F)c(O)c(F)c3)ncc2N(C)C(=O)C1C [BID1870] (first compound 0.0004 µM, partner dose 0.2 µM)	68.9%	32.7%	91.1%	37.8%	112%	149%	174%	146%	61.7%	128%	46.7%	278%	102%	107%	43.3%	152%
CS(=O)(=O)CCNCc1ccc(-c2ccc3ncnc(Nc4ccc(OCc5cccc(F)c5)c(Cl)c4)c3c2)o1 [lapatinib] + CCc1ccc(CCOc2ccc(CC3SC(=O)NC3=O)cc2)nc1 [pioglitazone] (first compound 0.8 µM, partner dose 2 µM)	115%	25.5%	227%	252%	112%	114%	35.9%	113%	100%	100%	112%	105%	94.1%	181%	80.4%	37.6%
CNC(=O)c1cc(Oc2ccc(NC(=O)Nc3ccc(Cl)c(C(F)(F)F)c3)cc2)ccn1 [sorafenib] + COc1ccc(COc2ccc(Cc3cnc(N)nc3N)cc2OC)cc1 [GW2580] (first compound 0.4 µM, partner dose 1 µM)	289%	20%	55.5%	37.7%	49.9%	93.2%	175%	181%	51.8%	52.4%	122%	97.9%	222%	31%	34.6%	51.5%
Cc1cc(Nc2cc(N3CCN(C)CC3)nc(/C=C/c3ccccc3)n2)n[nH]1 + CCCCCCCCCCCC1=C(O)C(=O)C=C(O)C1=O [Embelin] (first compound 0.04 µM, partner dose 1.2 µM)	130%	34.9%	40.1%	67.2%	67.7%	42.3%	93%	80.7%	25%	306%	171%	147%	120%	28.1%	29.2%	77%
Nc1ccn([C@@H]2O[C@H](CO)[C@@H](O)C2(F)F)c(=O)n1 [gemcitabine] + O=c1cc(-c2cccc3c2Sc2ccccc2S3)oc(N2CCOCC2)c1 [KU55933] (first compound 0.0004 µM, partner dose 1 µM)	55.2%	21%	26.3%	40.1%	373%	105%	110%	136%	74.9%	27.7%	145%	89.9%	100%	181%	53.1%	97.8%
Nc1nc(F)nc2c1ncn2[C@@H]1O[C@H](CO)[C@@H](O)[C@@H]1O [fludarabine] + CCc1ccc(CCOc2ccc(CC3SC(=O)NC3=O)cc2)nc1 [pioglitazone] (first compound 0.2 µM, partner dose 2 µM)	882%	42.8%	75.7%	105%	39.2%	82.2%	65.7%	85.3%	118%	117%	61.7%	82%	96.8%	43.5%	77.4%	89.6%
C=C(c1ccc(C(=O)O)cc1)c1cc2c(cc1C)C(C)(C)CCC2(C)C [Bexarotene] + O=C(O)C(=O)Nc1sc2c(c1C(=O)O)CCNC2 [TCS401] (first compound 2 µM, partner dose 1.66667 µM)	32.1%	27.6%	19.2%	25.1%	172%	138%	68.7%	155%	54.2%	151%	29.9%	121%	95.6%	53.8%	66.2%	14.8%
CNC(=O)c1cc(Oc2ccc(NC(=O)Nc3ccc(Cl)c(C(F)(F)F)c3)cc2)ccn1 [sorafenib] + CCN(CC)CCCCNc1ncc2cc(-c3cc(OC)cc(OC)c3)c(NC(=O)NC(C)(C)C)nc2n1 [PD173074] (first compound 0.4 µM, partner dose 0.1 µM)	60.2%	52.2%	147%	83.7%	53.9%	83.3%	138%	109%	13.3%	70.5%	71.4%	53.6%	150%	112%	27.4%	133%

Some of the entries above in a different format.

| SMILES | cleaved PARP positive nuclei fraction [1] | cleaved PARP positive nuclei fraction [2] | cleaved PARP positive nuclei fraction [3] | cleaved PARP positive nuclei fraction [4] | cleaved PARP positive nuclei fraction [5] | cleaved PARP positive nuclei fraction [6] | cleaved PARP positive nuclei fraction [7] | cleaved PARP positive nuclei fraction [8] | cleaved PARP positive nuclei fraction [9] | cleaved PARP positive nuclei fraction [10] | cleaved PARP positive nuclei fraction [11] | cleaved PARP positive nuclei fraction [12] | cleaved PARP positive nuclei fraction [13] | cleaved PARP positive nuclei fraction [14] | cleaved PARP positive nuclei fraction [15] | cleaved PARP positive nuclei fraction [16] |
| --- | --- | --- | --- | --- | --- | --- | --- | --- | --- | --- | --- | --- | --- | --- | --- | --- |
| Nc1ccn([C@@H]2O[C@H](CO)[C@@H](O)C2(F)F)c(=O)n1 [gemcitabine] + N#Cc1c(O)c2c(-c3ccc(-c4ccccc4O)cc3)csc2[nH]c1=O [A769662] (first compound 0.0004 µM, partner dose 2 µM) | 63.4% | 5.64% | 166% | 49% | 233% | 258% | 170% | 293% | 88.1% | 39.8% | 65.3% | 127% | 134% | 101% | 71% | 58.7% |
| Nc1ncn([C@H]2C[C@H](O)[C@@H](CO)O2)c(=O)n1 [decitabine] + COc1cc2ncnc(Nc3ccc(Oc4ccccc4)cc3)c2cc1OC [SrcI1] (first compound 0.1 µM, partner dose 2 µM) | 73.6% | 38% | 125% | 75.5% | 188% | 93.6% | 29.1% | 94.9% | 49.5% | 79.6% | 85.2% | 163% | 143% | 105% | 77.9% | 186% |
